Data: the supplement of paper PMC8728848
The list shows a part of the results.

Key:
Test in all cases: glycan array binding signal (z-score within array); higher = stronger binding
Settings in all cases: glycan notation: IUPAC condensed, linker removed
Fuc(a1-3)GlcNAc = target: Fuc(a1-3)GlcNAc
Procedure, shortened: (§1)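 The binding signal is a Z-score computed within each array and averaged over linkers. Arrays of the same protein sequence at different concentrations or buffers were also averaged together. Data originate from 3228 arrays in the Consortium for Functional Glycomics database, kept only where the protein sequence was available.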

[1] = target: Fuc(a1-3)[Gal(b1-4)]Glc6S
Procedure, shortened: as §1

[2] = target: Fuc(a1-3)[Gal(b1-4)]GlcNAc
Procedure, shortened: as §1

[3] = target: Fuc(a1-3)[Gal(b1-4)]GlcNAc(b1-2)Man
Procedure, shortened: as §1

[4] = target: Fuc(a1-3)[Gal(b1-4)]GlcNAc(b1-2)Man(a1-3)[Fuc(a1-3)[Gal(b1-4)]GlcNAc(b1-2)Man(a1-6)]Man(b1-4)GlcNAc(b1-4)GlcNAc
Procedure, shortened: as §1

[5] = target: Fuc(a1-3)[Gal(b1-4)]GlcNAc(b1-2)Man(a1-3)[Fuc(a1-3)[Gal(b1-4)]GlcNAc(b1-2)Man(a1-6)]Man(b1-4)GlcNAc(b1-4)[Fuc(a1-6)]GlcNAc
Procedure, shortened: as §1

[6] = target: Fuc(a1-3)[Gal(b1-4)]GlcNAc(b1-3)Gal(b1-3)[Fuc(a1-4)]GlcNAc
Procedure, shortened: as §1

[7] = target: Fuc(a1-3)[Gal(b1-4)]GlcNAc(b1-3)Gal(b1-4)[Fuc(a1-3)]GlcNAc
Procedure, shortened: as §1

[8] = target: Fuc(a1-3)[Gal(b1-4)]GlcNAc(b1-3)Gal(b1-4)[Fuc(a1-3)]GlcNAc(b1-3)Gal(b1-4)[Fuc(a1-3)]GlcNAc
Procedure, shortened: as §1

[9] = target: Fuc(a1-3)[Gal(b1-4)]GlcNAc(b1-3)GalNAc
Procedure, shortened: as §1

[10] = target: Fuc(a1-3)[Gal(b1-4)]GlcNAc(b1-6)GalNAc
Procedure, shortened: as §1

[11] = target: Fuc(a1-3)[Gal(b1-4)]GlcNAc(b1-6)[Gal(b1-3)GlcNAc(b1-3)]Gal(b1-4)Glc
Procedure, shortened: as §1

[12] = target: Fuc(a1-3)[Gal(b1-4)]GlcNAc6S
Procedure, shortened: as §1

[13] = target: Fuc(a1-3)[Gal3S(b1-4)]Glc
Procedure, shortened: as §1

[14] = target: Fuc(a1-3)[Gal3S(b1-4)]GlcNAc
Procedure, shortened: as §1

[15] = target: Fuc(a1-3)[Gal3S(b1-4)]GlcNAc6S
Procedure, shortened: as §1

[16] = target: Fuc(a1-3)[GalNAc(b1-4)]GlcNAc
Procedure, shortened: as §1

[17] = target: Fuc(a1-3)[GalNAc(b1-4)]GlcNAc6S
Procedure, shortened: as §1

Fuc(a1-4)GlcNAc = target: Fuc(a1-4)GlcNAc
Procedure, shortened: as §1

Fuc(b1-3)GlcNAc = target: Fuc(b1-3)GlcNAc
Procedure, shortened: as §1

Gal(a1-2)Gal = target: Gal(a1-2)Gal
Procedure, shortened: as §1

Gal(a1-3)Gal = target: Gal(a1-3)Gal
Procedure, shortened: as §1

Gal(a1-3)Gal(b1-3)GlcNAc = target: Gal(a1-3)Gal(b1-3)GlcNAc
Procedure, shortened: as §1

[18] = target: Gal(a1-3)Gal(b1-3)GlcNAc(b1-2)Man
Procedure, shortened: as §1

[19] = target: Gal(a1-3)Gal(b1-3)GlcNAc(b1-2)Man(a1-3)[Gal(a1-3)Gal(b1-3)GlcNAc(b1-2)Man(a1-6)]Man(b1-4)GlcNAc(b1-4)GlcNAc
Procedure, shortened: as §1

[20] = target: Gal(a1-3)Gal(b1-3)GlcNAc(b1-3)GalNAc
Procedure, shortened: as §1

[21] = target: Gal(a1-3)Gal(b1-3)GlcNAc(b1-6)GalNAc
Procedure, shortened: as §1

[22] = target: Gal(a1-3)Gal(b1-3)[Fuc(a1-4)]GlcNAc(b1-2)Man(a1-3)[Gal(a1-3)Gal(b1-3)[Fuc(a1-4)]GlcNAc(b1-2)Man(a1-6)]Man(b1-4)GlcNAc(b1-4)GlcNAc
Procedure, shortened: as §1

Gal(a1-3)Gal(b1-4)Glc = target: Gal(a1-3)Gal(b1-4)Glc
Procedure, shortened: as §1

Gal(a1-3)Gal(b1-4)GlcNAc = target: Gal(a1-3)Gal(b1-4)GlcNAc
Procedure, shortened: as §1

B1: PX15642A-pgi-501-20-501 (Parabacteroides gingivalis) (protein)
chain: CELDRDPEGKDFQQPYTSFVQTKQNRDGLYALLRNTENPRMHFYQELQSDMYCTTITDGNSLAPFVNWDLGILNDHGRADEDEVSGIAGYYFVYNRLNQQANAFVNNTEAALQNQVYKNSTEIANAKSFLAEGKVLQALAIWRLMDRFSFHESVTEVNSGAKDLGVILLKEYNPGYIGPRATKAQCYDYILSRLSEAIEVLPENRESVLYVSRDYAYALRARIYLALGEYGKAAADAKMVVDKYPLIGAADASEFENIYRSDANNPEIIFRGFASATLGSFTATTLNGAAPAGKDIKYNPSAVPFQWVVDLYENEDFRKSVYIAKVVKKDKGYLVNKFLEDKAYRDVQDKPNLKVGARYFSVAEVYLILVESALQTGDTPTAEKYLKALSKARGAEVSVVNMEALQAERTRELIGEGSRLRDMVRWSIPNNHDAFETQPGLEGFANTTPLKAQAPVGFYAYTWEFPQRDRQTNPQLIKNWPI
glycan array binding signal (z-score) (Fuc(a1-3)GlcNAc): -0.538 | glycan array binding signal (z-score) [1]: 1.14 | glycan array binding signal (z-score) [2]: -0.142 | glycan array binding signal (z-score) [3]: -0.285 | glycan array binding signal (z-score) [4]: -0.273 | glycan array binding signal (z-score) [5]: 0.038 | glycan array binding signal (z-score) [6]: -0.483 | glycan array binding signal (z-score) [7]: -0.691 | glycan array binding signal (z-score) [8]: 0.419 | glycan array binding signal (z-score) [9]: -0.744 | glycan array binding signal (z-score) [10]: -0.015 | glycan array binding signal (z-score) [11]: -0.871 | glycan array binding signal (z-score) [12]: 0.592 | glycan array binding signal (z-score) [13]: -0.872 | glycan array binding signal (z-score) [14]: -0.194 | glycan array binding signal (z-score) [15]: -0.467 | glycan array binding signal (z-score) [16]: 1.08 | glycan array binding signal (z-score) [17]: 0.034 | glycan array binding signal (z-score) (Fuc(a1-4)GlcNAc): 2.72 | glycan array binding signal (z-score) (Fuc(b1-3)GlcNAc): -0.235 | glycan array binding signal (z-score) (Gal(a1-2)Gal): -0.319 | glycan array binding signal (z-score) (Gal(a1-3)Gal): -0.702 | glycan array binding signal (z-score) (Gal(a1-3)Gal(b1-3)GlcNAc): -0.477 | glycan array binding signal (z-score) [18]: -0.409 | glycan array binding signal (z-score) [19]: 0.212 | glycan array binding signal (z-score) [20]: -0.112 | glycan array binding signal (z-score) [21]: -0.233 | glycan array binding signal (z-score) [22]: 1.34 | glycan array binding signal (z-score) (Gal(a1-3)Gal(b1-4)Glc): -0.282 | glycan array binding signal (z-score) (Gal(a1-3)Gal(b1-4)GlcNAc): 0.4
